These are yes or no findings as the source states them, for the method shown. For some of these results: Binding seen in cells or lysates may run through a third protein. Some results given as binding are weak or reduced against the parent protein; the word gives no strength.
Columns and labels:
Settings in all cases: remark: other sources report otherwise
[1] = biological target: T1, Argonaute-2 (Ago2), endogenous (human (endogenous in HeLa and T47D)), Q9UKV8; experiment: anion-exchange chromatography; high molecular weight size-exclusion fractions of HeLa nuclear extract concentrated and run on Mono-Q, linear gradient 0.1 to 1 M NaCl; fractions by Western blot
[2] = biological target: FLAG-HA-tagged Ago2 (FHA-Ago2) (human), Q9UKV8; experiment: co-IP; anti-FLAG immunoprecipitation of FHA-Ago2 from nuclear extract of T47D cells stably expressing it; HeLa nuclear extract as negative control; Western blot
[3] = biological target: T1, Argonaute-2 (Ago2), endogenous (human …); experiment: co-IP; endogenous proteins from pre-cleared HeLa nuclear extract; Protein G Plus/Protein A resin and antibody, 4°C, 2-3 h; wash 20 mM Tris-HCl pH 7.5, 0.4 M NaCl, 2 mM MgCl2, 0.05% NP-40, 0.025% SDS; Western blot
[4] = biological target: T1, Argonaute-2 (Ago2), endogenous (human …); experiment: SEC; HeLa nuclear extract, treated with RNase A or SUPERase-In, on Superdex 200 HiLoad 16/60 in 20 mM Tris-HCl pH 7.5, 150 mM NaCl, 3 mM MgCl2, 5% glycerol; fractions by Western blot

Measured: binding

B1: TAR RNA-binding protein (TRBP), endogenous, Q15633 1-366 (protein)
chain: MSEEEQGSGTTTGCGLPSIEQMLAANPGKTPISLLQEYGTRIGKTPVYDLLKAEGQAHQPNFTFRVTVGDTSCTGQGPSKKAAKHKAAEVALKHLKGGSMLEPALEDSSSFSPLDSSLPEDIPVFTAAAAATPVPSVVLTRSPPMELQPPVSPQQSECNPVGALQELVVQKGWRLPEYTVTQESGPAHRKEFTMTCRVERFIEIGSGTSKKLAKRNAAAKMLLRVHTVPLDARDGNEVEPDDDHFSIGVGSRLDGLRNRGPGCTWDSLRNSVGEKILSLRSCSLGSLGALGPACCRVLSELSEEQAFHVSYLDIEELSLSGLCQCLVELSTQPATVCHGSATTREAARGEAARRALQYLKIMAGSK
binds: all assays above
